For this assay, the target named is FICD^L258D-H363A, monomeric mutant (human) (UniProt Q9BVA6). As to the kind of experiment: SEC. (In general: Size exclusion chromatography separates by hydrodynamic size, large species first.)

These are yes or no findings as the source states them, for the method shown.

B1: FICD^L258D-H363A, monomeric mutant (enzyme, UniProt Q9BVA6 104-445)
chain: LEARAALNQALEMKRQGKREKAQKLFMHALKMDPDFVDALTEFGIFSEEDKDIIQADYLYTRALTISPYHEKALVNRDRTLPLVEEIDQRYFSIIDSKVKKVMSIPKGNSALRRVMEETYYHHIYHTVAIEGNTLTLSEIRHILETRYAVPGKSDEEQNEVIGMHAAMKYINTTLVSRIGSVTISDVLEIHRRVLGYVDPVEAGRFRTTQVLVGHHIPPHPQDVEKQMQEFVQWLNSEEAMNLHPVEFAALAHYKLVYIAPFIDGNGRTSRLLMNLILMQAGYPPITIRKEQRSDYYHVLEAANEGDVRPFIRFIAKCTETTLDTLLFATTEYSVALPEAQP
Consider B1, for which the binding result is reported as “no binding”.

Source of the values: paper doi:10.1101/2022.05.14.22275020.
